Positions count from the first letter of the chain named. These are yes or no findings as the source states them, for the method shown. In cells and extracts the contact can be indirect. A yes stands for co-enrichment or nearness to the bait. Other partners may have been found.
B1: SLC25A16 (mouse) (protein, UniProt Q8C0K5 1-332)
chain: MAALVAAAALAAAEPAPAVPQAAGSGGPTSRRDFYWLRSFLAGGIAGCCAKTTVAPLDRVKVLLQAHNRHYKHLGVLSTLRAVPQKEGYLGLYKGNGAMMIRIFPYGAIQFMAFEHYKTFITTKLGVSGHVHRLMAGSMAGMTAVICTYPLDVVRVRLAFQVKGEHTYSGIIHAFKTIYAKEGGFLGFYRGLMPTILGMAPYAGVSFFTFGTLKSVGLSYAPALLGRPSSDNPNVLVLKTHINLLCGGVAGAIAQTISYPFDVTRRRMQLGAVLPEFEKCLTMRETMKYVYGQHGIRRGLYRGLSLNYIRCIPSQAVAFTTYELMKQFFHLN
B2: lipoprotein lipase (mouse) (protein, UniProt P11152 28-474)
chain: ADAGRDFSDIESKFALRTPEDTAEDTCHLIPGLADSVSNCHFNHSSKTFVVIHGWTVTGMYESWVPKLVAALYKREPDSNVIVVDWLYRAQQHYPVSAGYTKLVGNDVARFINWMEEEFNYPLDNVHLLGYSLGAHAAGVAGSLTNKKVNRITGLDPAGPNFEYAEAPSRLSPDDADFVDVLHTFTRGSPGRSIGIQKPVGHVDIYPNGGTFQPGCNIGEAIRVIAERGLGDVDQLVKCSHERSIHLFIDSLLNEENPSKAYRCNSKEAFEKGLCLSCRKNRCNNLGYEINKVRAKRSSKMYLKTRSQMPYKVFHYQVKIHFSGTEDGKQHNQAFEISLYGTVAESENIPFTLPEVSTNKTYSFLIYTEVDIGELLMMKLKWISDSYFSWPDWWSSPSFVIERIRVKAGETQKKVIFCAREKVSHLQKGKDSAVFVKCHDKSLKKSG
B3: adiponectin (mouse) (protein, UniProt Q60994 18-247)
chain: EDDVTTTEELAPALVPPPKGTCAGWMAGIPGHPGHNGTPGRDGRDGTPGEKGEKGDAGLLGPKGETGDVGMTGAEGPRGFPGTPGRKGEPGEAAYVYRSAFSVGLETRVTVPNVPIRFTKIFYNQQNHYDGSTGKFYCNIPGLYYFSYHITVYMKDVKVSLFKKDKAVLFTYDQYQEKNVDQASGSVLLHLEVGDQVWLQVYGDGDHNGLYADNVNDSTFTGFLLYHDTN
B4: Group XIIA secretory phospholipase A2 (mouse) (protein, UniProt Q9EPR2 26-192)
chain: QEQDQTTDWRATLKTIRNGIHKIDTYLNAALDLLGGEDGLCQYKCSDGSKPVPRYGYKPSPPNGCGSPLFGVHLNIGIPSLTKCCNQHDRCYETCGKSKNDCDEEFQYCLSKICRDVQKTLGLSQNVQACETTVELLFDSVIHLGCKPYLDSQRAACWCRYEEKTDL
B5: PIGK (mouse) (protein, UniProt Q9CXY9 28-395)
chain: GHIEDQAEQFFRSGHTNNWAVLVCTSRFWFNYRHVANTLSVYRSVKRLGIPDSHIVLMLADDMACNARNPKPATVFSHKNMELNVYGDDVEVDYRSYEVTVENFLRVLTGRVPPSTPRSKRLLSDDRSNILIYMTGHGGNGFLKFQDSEEITNIELADAFEQMWQKRRYNELLFIIDTCQGASMYERFYSPNIMALASSQVGEDSLSHQPDPAIGVHLMDRYTFYVLEFLEEINPASQTNMNDLFQVCPKSLCVSTPGHRTDLFQRDPKNVLITDFFGSVRKVEITTEKISLQWDSQVVDSSSKEDGTAEERMGPLKYAEQLPVAQIIHQKPKPRDWHPPGGFILGLWALIIMVFFKTYGIKHMKFIF
B6: NADH dehydrogenase NDUFA1 (mouse) (protein, UniProt O35683 1-70)
chain: MWFEILPGLAIMGVCLVIPGVSTAYIHKFTNGGKEKRVARVQYQWYLMERDRRISGVNRYYVSKGLENID
B7: SLC25A35 (mouse) (protein, UniProt Q5SWT3 1-300)
chain: MDFLMSGVAACGACVFTNPLEVVKTRMQLQGELQAPGTYQRHYRNVFHAFFTIGKVDGLAALQKGLGPALLYQFLMNGIRLGTYGLAESRGYLHTNEGTHSPVRSAAAGALAGVMGAYLGSPIYMVKTHLQAQAASEIAVGHQYKHQGMFQALTEIGQKHGLVGLWRGAVGGLPRVVIGSSTQLCTFSSIKDLLSQWEIFPPQSWKVALAAAMVSGVAIVVAMTPFDVASTRLYNQPTDTRGKGLMYRGILDALLQTARTEGFFGMYKGIGASYFRLGPHTILSLFFWDQLRSFYNTYAK
B8: UBE2J1 (mouse) (protein, UniProt Q9JJZ4 1-318)
chain: METRYNLKSPAVKRLMKEAAELKDPTDHYHAQPLEDNLFEWHFTVRGPPDSDFDGGVYHGRIVLPPEYPMKPPSIILLTANGRFEVGKKICLSISGHHPETWQPSWSIRTALLAIIGFMPTKGEGAIGSLDYTPEERRALAKKSQDFCCEGCGSAMKDVLLPLKSGSGSSQADQEAKELARQISFKAEVNSSGKTIAESDLNQCFSLNDSQDDLPTTFQGATASTSYGAQNPSGAPLPQPTQPAPKNTSMSPRQRRAQQQSQRRPSTSPDVLQGQPPRAHHTEHGGSAMLIIILTLALAALIFRRIYLANEYIFDFEL
B9: calnexin (mouse) (protein, UniProt P35564 21-591)
chain: HDGHDDDAIDIEDDLDDVIEEVEDSKSKSDASTPPSPKVTYKAPVPTGEVYFADSFDRGSLSGWILSKAKKDDTDDEIAKYDGKWEVDEMKETKLPGDKGLVLMSRAKHHAISAKLNKPFLFDTKPLIVQYEVNFQNGIECGGAYVKLLSKTAELSLDQFHDKTPYTIMFGPDKCGEDYKLHFIFRHKNPKTGVYEEKHAKRPDADLKTYFTDKKTHLYTLILNPDNSFEILVDQSVVNSGNLLNDMTPPVNPSREIEDPEDRKPEDWDERPKIADPDAVKPDDWDEDAPSKIPDEEATKPEGWLDDEPEYIPDPDAEKPEDWDEDMDGEWEAPQIANPKCESAPGCGVWQRPMIDNPNYKGKWKPPMIDNPNYQGIWKPRKIPNPDFFEDLEPFKMTPFSAIGLELWSMTSDIFFDNFIISGDRRVVDDWANDGWGLKKAADGAAEPGVVLQMLEAAEERPWLWVVYILTVALPVFLVILFCCSGKKQSNAMEYKKTDAPQPDVKDEEGKEEEKNKRDEEEEEEKLEEKQKSDAEEDGVTGSQDEEDSKPKAEEDEILNRSPRNRKPRRE
B10: alpha-L-fucosidase (protein, UniProt Q9BTY2 29-467)
chain: HSATRFDPTWESLDARQLPAWFDQAKFGIFIHWGVFSVPSFGSEWFWWYWQKEKIPKYVEFMKDNYPPSFKYEDFGPLFTAKFFNANQWADIFQASGAKYIVLTSKHHEGFTLWGSEYSWNWNAIDEGPKRDIVKELEVAIRNRTDLRFGLYYSLFEWFHPLFLEDESSSFHKRQFPVSKTLPELYELVNNYQPEVLWSDGDGGAPDQYWNSTGFLAWLYNESPVRGTVVTNDRWGAGSICKHGGFYTCSDRYNPGHLLPHKWENCMTIDKLSWGYRREAGISDYLTIEELVKQLVETVSCGGNLLMNIGPTLDGTISVVFEERLRQMGSWLKVNGEAIYETHTWRSQNDTVTPDVWYTSKPKEKLVYAIFLKWPTSGQLFLGHPKAILGATEVKLLGHGQPLNWISLEQNGIMVELPQLTIHQMPCKWGWALALTNVI
B11: Group XIIA secretory phospholipase A2 (protein, UniProt Q9BZM1 23-189)
chain: B4 chain with D4A, I20V, V52F, S124T, N126H, W158R, R160H

Amino acid sequences for entries named in this document (tags omitted). Residues count along the entry.
UniProt Q9BZM1, residues 23-189: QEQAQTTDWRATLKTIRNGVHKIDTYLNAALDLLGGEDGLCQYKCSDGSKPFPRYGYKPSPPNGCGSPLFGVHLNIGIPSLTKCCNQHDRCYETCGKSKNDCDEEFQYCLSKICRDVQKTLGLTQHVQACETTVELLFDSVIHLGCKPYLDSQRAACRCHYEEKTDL
UniProt Q9Z2G6, residues 22-790: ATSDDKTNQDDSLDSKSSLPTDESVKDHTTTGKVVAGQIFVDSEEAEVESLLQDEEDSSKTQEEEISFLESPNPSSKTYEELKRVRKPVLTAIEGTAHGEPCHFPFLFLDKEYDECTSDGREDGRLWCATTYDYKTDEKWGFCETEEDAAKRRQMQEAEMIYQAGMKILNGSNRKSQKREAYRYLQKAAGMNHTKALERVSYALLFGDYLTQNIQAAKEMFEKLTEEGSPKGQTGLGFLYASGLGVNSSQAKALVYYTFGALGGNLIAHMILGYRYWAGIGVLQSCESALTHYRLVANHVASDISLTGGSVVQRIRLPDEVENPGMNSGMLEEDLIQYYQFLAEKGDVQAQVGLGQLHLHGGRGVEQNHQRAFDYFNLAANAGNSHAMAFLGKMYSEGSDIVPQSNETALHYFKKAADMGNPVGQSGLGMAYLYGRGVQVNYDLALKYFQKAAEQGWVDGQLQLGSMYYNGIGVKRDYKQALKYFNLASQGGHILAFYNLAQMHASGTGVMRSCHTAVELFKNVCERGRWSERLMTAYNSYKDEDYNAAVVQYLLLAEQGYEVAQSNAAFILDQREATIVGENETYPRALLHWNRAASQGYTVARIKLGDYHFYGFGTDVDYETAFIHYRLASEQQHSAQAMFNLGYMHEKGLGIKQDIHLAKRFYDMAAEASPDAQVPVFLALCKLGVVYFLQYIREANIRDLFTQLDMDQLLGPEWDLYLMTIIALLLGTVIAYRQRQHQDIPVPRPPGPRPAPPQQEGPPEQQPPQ
UniProt P01901, residues 22-369: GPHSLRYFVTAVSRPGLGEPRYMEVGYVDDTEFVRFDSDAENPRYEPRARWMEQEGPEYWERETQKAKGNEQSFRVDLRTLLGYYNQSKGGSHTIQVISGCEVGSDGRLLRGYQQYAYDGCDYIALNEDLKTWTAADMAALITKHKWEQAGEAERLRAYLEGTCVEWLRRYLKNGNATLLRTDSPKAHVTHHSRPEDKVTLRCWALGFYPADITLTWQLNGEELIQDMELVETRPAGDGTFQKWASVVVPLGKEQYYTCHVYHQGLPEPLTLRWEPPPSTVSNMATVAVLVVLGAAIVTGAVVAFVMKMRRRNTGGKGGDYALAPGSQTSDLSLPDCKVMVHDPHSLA
UniProt Q9DC69, residues 36-377: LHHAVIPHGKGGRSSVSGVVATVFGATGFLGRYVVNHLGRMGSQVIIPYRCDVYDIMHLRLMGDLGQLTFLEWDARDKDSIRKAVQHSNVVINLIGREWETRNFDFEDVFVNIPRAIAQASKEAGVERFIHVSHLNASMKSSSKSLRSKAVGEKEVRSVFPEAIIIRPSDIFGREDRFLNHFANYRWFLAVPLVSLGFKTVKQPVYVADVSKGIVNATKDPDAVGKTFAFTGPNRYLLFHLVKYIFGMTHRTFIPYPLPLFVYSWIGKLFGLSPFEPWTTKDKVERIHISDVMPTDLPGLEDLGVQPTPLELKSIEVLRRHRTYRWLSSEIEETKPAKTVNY
UniProt Q8JZU2, residues 14-311: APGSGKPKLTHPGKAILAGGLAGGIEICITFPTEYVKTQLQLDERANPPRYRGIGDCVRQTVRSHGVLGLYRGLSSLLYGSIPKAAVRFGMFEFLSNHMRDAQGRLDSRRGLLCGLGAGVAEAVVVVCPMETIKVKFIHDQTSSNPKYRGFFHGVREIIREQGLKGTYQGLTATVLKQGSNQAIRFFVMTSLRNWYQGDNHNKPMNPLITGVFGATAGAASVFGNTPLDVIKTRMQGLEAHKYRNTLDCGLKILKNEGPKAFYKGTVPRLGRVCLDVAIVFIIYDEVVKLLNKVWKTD
UniProt Q9UBV2, residues 22-794: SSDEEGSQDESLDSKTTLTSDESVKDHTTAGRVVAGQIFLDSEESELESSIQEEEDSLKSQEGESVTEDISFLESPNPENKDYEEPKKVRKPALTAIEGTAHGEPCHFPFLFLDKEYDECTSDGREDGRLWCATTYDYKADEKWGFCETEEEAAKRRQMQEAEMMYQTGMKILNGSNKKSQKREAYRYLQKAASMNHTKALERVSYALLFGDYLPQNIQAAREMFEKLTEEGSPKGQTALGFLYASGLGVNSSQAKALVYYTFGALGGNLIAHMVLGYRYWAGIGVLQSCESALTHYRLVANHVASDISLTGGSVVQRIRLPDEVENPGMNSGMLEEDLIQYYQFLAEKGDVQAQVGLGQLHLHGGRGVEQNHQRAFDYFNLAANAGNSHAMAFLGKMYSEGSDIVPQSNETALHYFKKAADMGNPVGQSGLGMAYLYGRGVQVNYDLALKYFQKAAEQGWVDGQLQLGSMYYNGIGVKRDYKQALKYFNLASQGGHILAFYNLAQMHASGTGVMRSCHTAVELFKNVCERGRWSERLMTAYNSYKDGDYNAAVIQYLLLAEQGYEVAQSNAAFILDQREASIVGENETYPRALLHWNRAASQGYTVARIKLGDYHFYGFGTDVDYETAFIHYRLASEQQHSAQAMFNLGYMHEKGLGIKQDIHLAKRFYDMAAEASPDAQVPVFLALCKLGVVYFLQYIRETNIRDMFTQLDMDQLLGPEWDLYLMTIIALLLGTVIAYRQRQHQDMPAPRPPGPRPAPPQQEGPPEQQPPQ
UniProt Q5T4B2, residues 23-595: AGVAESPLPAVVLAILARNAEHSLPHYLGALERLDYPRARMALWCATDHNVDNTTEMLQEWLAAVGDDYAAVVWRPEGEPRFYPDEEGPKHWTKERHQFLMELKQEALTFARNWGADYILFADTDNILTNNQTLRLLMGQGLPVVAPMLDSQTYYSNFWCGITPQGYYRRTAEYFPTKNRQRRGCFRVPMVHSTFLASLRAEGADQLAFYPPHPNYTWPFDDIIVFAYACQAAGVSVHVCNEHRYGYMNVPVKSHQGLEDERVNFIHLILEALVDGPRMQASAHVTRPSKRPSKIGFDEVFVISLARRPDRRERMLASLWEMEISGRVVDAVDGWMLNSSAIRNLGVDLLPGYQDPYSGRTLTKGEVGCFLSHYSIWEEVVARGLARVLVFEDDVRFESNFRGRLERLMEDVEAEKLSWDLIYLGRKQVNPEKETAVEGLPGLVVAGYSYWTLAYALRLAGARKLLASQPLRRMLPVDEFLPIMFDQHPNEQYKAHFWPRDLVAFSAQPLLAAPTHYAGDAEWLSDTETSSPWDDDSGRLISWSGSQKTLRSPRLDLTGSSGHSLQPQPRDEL
UniProt P18850: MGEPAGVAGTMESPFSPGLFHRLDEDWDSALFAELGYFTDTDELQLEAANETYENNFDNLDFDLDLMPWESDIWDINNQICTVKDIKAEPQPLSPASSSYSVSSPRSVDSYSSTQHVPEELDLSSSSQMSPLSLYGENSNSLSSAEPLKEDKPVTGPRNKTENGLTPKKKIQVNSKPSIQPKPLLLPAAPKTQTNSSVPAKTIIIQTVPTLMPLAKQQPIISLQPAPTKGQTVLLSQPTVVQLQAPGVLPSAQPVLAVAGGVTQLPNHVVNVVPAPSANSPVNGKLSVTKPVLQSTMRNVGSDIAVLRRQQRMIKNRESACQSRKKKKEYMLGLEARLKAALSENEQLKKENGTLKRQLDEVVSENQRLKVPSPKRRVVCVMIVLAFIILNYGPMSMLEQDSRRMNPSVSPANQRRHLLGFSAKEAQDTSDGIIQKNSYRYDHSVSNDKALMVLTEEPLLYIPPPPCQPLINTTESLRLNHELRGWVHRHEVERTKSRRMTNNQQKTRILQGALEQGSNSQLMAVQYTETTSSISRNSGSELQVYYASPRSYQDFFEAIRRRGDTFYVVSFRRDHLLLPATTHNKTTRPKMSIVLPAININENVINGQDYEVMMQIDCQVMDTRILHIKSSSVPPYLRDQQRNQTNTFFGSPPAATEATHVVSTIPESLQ
UniProt Q99720: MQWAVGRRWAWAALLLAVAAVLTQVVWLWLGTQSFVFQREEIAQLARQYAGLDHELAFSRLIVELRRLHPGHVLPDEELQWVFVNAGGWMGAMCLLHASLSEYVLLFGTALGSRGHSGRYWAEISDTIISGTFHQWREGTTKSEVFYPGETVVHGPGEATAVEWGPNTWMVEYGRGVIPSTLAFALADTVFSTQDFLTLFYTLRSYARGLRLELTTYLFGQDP

Target: SEL1L (mouse) (mouse (endogenous in brown adipose tissue and adipocytes)) (UniProt Q9Z2G6)
Test: affinity purification with mass spectrometry; anti-SEL1L IP and LC-MS/MS, substrate screen: Hrd1-deficient compared with WT and Sel1L-deficient mouse brown adipose tissue and differentiated adipocytes; Group A hits also detected in WT, Group B hits only in Hrd1-deficient samples; 10 mg lysate

binding | Molecule
binds | MHC class I (H2-K1) (from UniProt P01901 22-369)
binds | NADH dehydrogenase NDUFA9 (mouse) (from UniProt Q9DC69 36-377)
binds | SLC25A1 (mouse) (from UniProt Q8JZU2 14-311)
binds | B1
binds | B2
binds | B3
binds | B4
binds | B5
binds | B6
binds | B7
binds | B8
binds | B9

Target: SEL1L (human (endogenous in HEK293T)) (UniProt Q9UBV2)
Test: affinity purification with mass spectrometry; anti-SEL1L IP and LC-MS/MS, substrate screen: HRD1 KO compared with WT, SEL1L KO and IgG samples of HEK293T cells; Group A hits also detected in WT, Group B hits only in HRD1 KO; 10 mg lysate

binding | Molecule
binds | CERCAM (from UniProt Q5T4B2 23-595)
binds | ATF6 (from UniProt P18850 1-670)
binds | SigmaR1 (from UniProt Q99720 1-223)
binds | B10
binds | B11

Source: paper PMC10803770
